This is an account of results in patent US20240059789A1.

Protein sequences, listed by entry. Tags and fused reporters are not part of them. Lines headed by an entry give the natural chain unless they say otherwise; changes in a name come on top.
UniProt P07766: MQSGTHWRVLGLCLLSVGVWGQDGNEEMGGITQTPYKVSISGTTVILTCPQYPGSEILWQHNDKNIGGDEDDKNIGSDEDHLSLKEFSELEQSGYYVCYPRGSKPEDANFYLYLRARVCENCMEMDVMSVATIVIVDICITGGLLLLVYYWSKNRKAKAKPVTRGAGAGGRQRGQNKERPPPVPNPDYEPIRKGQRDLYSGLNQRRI

The target of this assay is Human CD3 on T cells / Jurkat cells (human) (UniProt P07766). Kind of assay: flow cytometry on Jurkat cells, hybridoma antibody. In general terms: In flow cytometry, cells or beads pass a laser one at a time.

No constants are given. Whether binding was seen depends on the method and setting. Some results given as binding are weak or reduced against the parent protein; the word gives no strength.

B1: clone 065_D03 (antibody, human IgG1, kappa, V domains shown)
VH: EVQLVESGGGLVKPGGSLRLSCAASGFTFSRYNMNWVRQAPGKGLEWVSSISTSSNYIYYADSVKGRFTFSRDNAKNSLDLQMSGLRAEDTAIYYCTRGWGPFDYWGQGTLVTVSS
VL: DILLTQSPGILSVSPGERVSFSCRARQSIGTAIHWYQQRTNGSPRLLIKYASESISGIPSRFSGSGSGTDFTLTINSVESEDIADYYCQQSNSWPYTFGGGTKLEIKR
For the molecule B1, the binding result is given as “binds”.
